Patent US20090123940A1, “MOLECULES INVOLVED IN SYNAPTOGENESIS AND USES THEREFOR” (THE JOHNS HOPKINS UNIVERSITY, priority 2007, published 2009)
Results are given in words; binding and its absence hold for the method and conditions named. In cells and extracts the contact can be indirect. A result given as binding can be weak or reduced; the word gives no strength.

Molecular target: N-cadherin
Test: co-IP from HEK293 cells; co-clustering on the surface of COS-7 cells

binding: binds
B1: Neuronal activity regulated pentraxin (Narp) (ligand)
chain: QAQDNPIPGSRFVCTALPPEAARAGCPLPAMPMQGGALSPEEELRAAVLHWRETVVQQKETLGAQREAIRELTSKLARCEGLAGGKARGTGATGKDTMGDLPRDPGHVVEQLSRSLQTLKDRLESLELQLHTNASNAGLPSDFREVLQRRLGELERQLLRKVAELEDEKSLLHNETSAHRQKTENTLNALLQRVTELERGNSAFKSPDAFKVSLPLRTNYLYGKIKKTLPELYAFTICLWLRSSASPGIGTPFSYAVPGQANEIVLIEWGNNPIELLINDKVAQLPLFVSDGKWHHICITWTTRDGMWEAFQDGEKLGTGENLAPWHPIKPGGVLILGQEQDTVGGRFDATQAFVGELSQFNIWDRVLRAQEIINIANCSTNMPGNIIPWVDNNVDVFGGASKWPVETCEERLLDL
